Source: patent publication US7666870B2, “Phthalazinone derivatives” (Maybridge Limited, priority 2004, dated 2010)
Some entries share one result that the patent states for a list of compounds.

Chains of the proteins cited; added tags and fusions are not shown.
UniProt P09874, whole entry: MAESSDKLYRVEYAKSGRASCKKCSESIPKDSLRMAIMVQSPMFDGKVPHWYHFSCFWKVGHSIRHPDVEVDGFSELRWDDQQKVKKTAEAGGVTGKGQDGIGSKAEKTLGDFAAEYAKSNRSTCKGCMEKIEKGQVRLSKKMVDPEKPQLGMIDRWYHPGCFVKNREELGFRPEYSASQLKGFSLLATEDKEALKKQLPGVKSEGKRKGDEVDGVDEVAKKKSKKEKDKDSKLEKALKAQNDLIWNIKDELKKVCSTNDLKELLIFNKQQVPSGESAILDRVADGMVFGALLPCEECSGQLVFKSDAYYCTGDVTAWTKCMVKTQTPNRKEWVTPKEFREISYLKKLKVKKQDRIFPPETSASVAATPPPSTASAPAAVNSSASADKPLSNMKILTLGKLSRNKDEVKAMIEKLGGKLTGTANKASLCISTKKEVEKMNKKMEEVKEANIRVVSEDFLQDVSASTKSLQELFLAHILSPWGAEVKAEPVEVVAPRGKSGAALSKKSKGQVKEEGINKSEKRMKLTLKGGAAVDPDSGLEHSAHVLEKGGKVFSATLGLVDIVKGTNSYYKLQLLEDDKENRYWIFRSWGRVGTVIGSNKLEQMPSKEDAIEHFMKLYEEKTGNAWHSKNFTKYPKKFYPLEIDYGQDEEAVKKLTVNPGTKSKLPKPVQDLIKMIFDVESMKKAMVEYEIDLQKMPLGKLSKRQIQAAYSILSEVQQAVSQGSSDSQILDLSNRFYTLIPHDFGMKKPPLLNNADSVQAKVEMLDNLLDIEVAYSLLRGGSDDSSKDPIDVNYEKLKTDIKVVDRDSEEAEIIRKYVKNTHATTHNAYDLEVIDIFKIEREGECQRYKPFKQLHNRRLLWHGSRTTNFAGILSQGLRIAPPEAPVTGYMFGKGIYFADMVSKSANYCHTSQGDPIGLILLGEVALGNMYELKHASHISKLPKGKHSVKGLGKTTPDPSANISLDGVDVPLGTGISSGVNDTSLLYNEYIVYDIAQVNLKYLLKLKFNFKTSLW

Target: T1, Mammalian PARP, isolated from Hela cell nuclear extract (Homo sapiens, UniProt P09874)
T1 construct: Mammalian PARP, isolated from Hela cell nuclear extract; from tissue; host or cells: HeLa cell nuclear extract
Experiment: PARP inhibition assay (FlashPlate, 3H-NAD incorporation)
Assay type: biochemical
Details: NAD 5 μM, 30° C., read-out: IC50 (concentration at which 50% of the enzyme activity is inhibited)

IC50 | Compound
< 100 nM | CCS(=O)(=O)N1CCN(C(=O)c2ccnc(Cc3n[nH]c(=O)c4ccccc34)c2)CC1 [Compound 1]
< 100 nM | O=C(c1ccnc(Cc2n[nH]c(=O)c3ccccc23)c1)N1CCN(C(=O)C2CCCC2)CC1 [Compound 2]
< 100 nM | O=C(c1cccc(F)c1)N1CCN(C(=O)c2ccnc(Cc3n[nH]c(=O)c4ccccc34)c2)CC1 [Compound 3]
< 100 nM | O=C(c1ccnc(Cc2n[nH]c(=O)c3ccccc23)c1)N1CCN(C(=O)C2CCCCC2)CC1 [Compound 5]
< 100 nM | CCC(=O)N1CCN(C(=O)c2ccnc(Cc3n[nH]c(=O)c4ccccc34)c2)CC1 [Compound 6]
< 100 nM | Cc1cc(C)c(S(=O)(=O)N2CCN(C(=O)c3ccc(Cc4n[nH]c(=O)c5ccccc45)o3)CC2)c(C)c1 [Compound 18]
< 100 nM | O=C(c1ccc(Cc2n[nH]c(=O)c3ccccc23)o1)N1CCN(C(=O)C2CCCCC2)CC1 [Compound 21]
< 100 nM | CC(=O)c1ccc(N2CCN(C(=O)c3ccc(Cc4n[nH]c(=O)c5ccccc45)s3)CC2)cc1 [Compound 51]
< 100 nM | COc1cccc(N2CCN(C(=O)c3ccc(Cc4n[nH]c(=O)c5ccccc45)s3)CC2)c1 [Compound 52]
< 100 nM | O=C(c1cc(Cc2n[nH]c(=O)c3ccccc23)ccn1)N1CCN(C(=O)C2CCCCC2)CC1 [Compound 56]
< 100 nM | O=C(c1cc(Cc2n[nH]c(=O)c3ccccc23)ccn1)N1CCN(C(=O)C2CCCC2)CC1 [Compound 58]
< 100 nM | O=C(c1cc(Cc2n[nH]c(=O)c3ccccc23)ccn1)N1CCN(C(=O)N2CCOCC2)CC1 [Compound 59]
< 100 nM | Cc1nnsc1C(=O)N1CCN(C(=O)c2cc(Cc3n[nH]c(=O)c4ccccc34)ccn2)CC1 [Compound 60]
< 100 nM | O=C(c1cc(Cc2n[nH]c(=O)c3ccccc23)ccn1)N1CCN(C(=O)c2cccs2)CC1 [Compound 61]
< 100 nM | O=C(c1cc(Cc2n[nH]c(=O)c3ccccc23)ccn1)N1CCCNCC1 [Compound 63]
< 100 nM | CC(C)(C)OC(=O)N1CCCN(C(=O)c2cc(Cc3n[nH]c(=O)c4ccccc34)ccn2)CC1 [Compound 64]
< 100 nM | O=C(c1cc(Cc2n[nH]c(=O)c3ccccc23)ccn1)N1CCN(CCO)CC1 [Compound 70]
< 100 nM | CC(=O)N1CCN(C(=O)c2cc(Cc3n[nH]c(=O)c4ccccc34)ccn2)CC1 [Compound 73]
< 100 nM | CN1CCCN(C(=O)c2cc(Cc3n[nH]c(=O)c4ccccc34)ccn2)CC1 [Compound 74]
< 100 nM | O=C(c1cc(Cc2n[nH]c(=O)c3ccccc23)ccn1)N1CCCN(CCO)CC1 [Compound 75]

More lines, now with the values behind:

Compound | IC50
O=C(c1ccnc(Cc2n[nH]c(=O)c3ccccc23)c1)N1CCN(C(=O)C2CC2)CC1 [Compound 4] | < 100 nM
O=C(c1cccc(Cc2n[nH]c(=O)c3ccccc23)n1)N1CCN(C(=O)C2CCCC2)CC1 [Compound 9] | < 100 nM
O=C(c1cccc(F)c1)N1CCN(C(=O)c2cccc(Cc3n[nH]c(=O)c4ccccc34)n2)CC1 [Compound 10] | < 100 nM
O=C(c1cccc(Cc2n[nH]c(=O)c3ccccc23)n1)N1CCN(C(=O)C2CC2)CC1 [Compound 11] | < 100 nM
O=C(c1cccc(Cc2n[nH]c(=O)c3ccccc23)n1)N1CCN(C(=O)C2CCCCC2)CC1 [Compound 12] | < 100 nM
CC(C)(C)OC(=O)N1CCN(C(=O)c2cccc(Cc3n[nH]c(=O)c4ccccc34)n2)CC1 [Compound 14] | < 100 nM
O=C(c1ccc(Cc2n[nH]c(=O)c3ccccc23)o1)N1CCN(C(=O)C2CCCC2)CC1 [Compound 17] | < 100 nM
O=C(Nc1cccc(F)c1)N1CCN(C(=O)c2ccc(Cc3n[nH]c(=O)c4ccccc34)o2)CC1 [Compound 24] | < 100 nM
O=C(c1ccc(Cc2n[nH]c(=O)c3ccccc23)o1)N1CCN(C2CCCCC2)CC1 [Compound 26] | < 100 nM
O=C(c1ccc(Cc2n[nH]c(=O)c3ccccc23)o1)N1CCN(c2ccccn2)CC1 [Compound 27] | < 100 nM
CC(=O)c1ccc(N2CCN(C(=O)c3ccc(Cc4n[nH]c(=O)c5ccccc45)o3)CC2)cc1 [Compound 28] | < 100 nM
O=C(c1ccco1)N1CCN(C(=O)c2ccc(Cc3n[nH]c(=O)c4ccccc34)o2)CC1 [Compound 29] | < 100 nM
O=C(c1ccc(Cc2n[nH]c(=O)c3ccccc23)o1)N1CCN(c2ncccn2)CC1 [Compound 35] | < 100 nM
O=C(c1ccc(Cc2n[nH]c(=O)c3ccccc23)s1)N1CCN(c2ccccn2)CC1 [Compound 50] | < 100 nM
O=C(c1cc(Cc2n[nH]c(=O)c3ccccc23)ccn1)N1CCN(C(=O)C2CC2)CC1 [Compound 57] | < 100 nM
O=C(c1ccccc1)N1CCN(C(=O)c2cc(Cc3n[nH]c(=O)c4ccccc34)ccn2)CC1 [Compound 62] | < 100 nM
COc1cccc(N2CCN(C(=O)c3cc(Cc4n[nH]c(=O)c5ccccc45)ccn3)CC2)c1 [Compound 65] | < 100 nM
O=C(c1cc(Cc2n[nH]c(=O)c3ccccc23)ccn1)N1CCN(c2ccccn2)CC1 [Compound 66] | < 100 nM
CCN1CCN(C(=O)c2cc(Cc3n[nH]c(=O)c4ccccc34)ccn2)CC1 [Compound 67] | < 100 nM
COc1ccc(N2CCN(C(=O)c3cc(Cc4n[nH]c(=O)c5ccccc45)ccn3)CC2)cc1 [Compound 68] | < 100 nM
COCCN1CCN(C(=O)c2cc(Cc3n[nH]c(=O)c4ccccc34)ccn2)CC1 [Compound 69] | < 100 nM
CN1CCN(C(=O)c2cc(Cc3n[nH]c(=O)c4ccccc34)ccn2)CC1 [Compound 71] | < 100 nM
CN(C)CCN1CCN(C(=O)c2cc(Cc3n[nH]c(=O)c4ccccc34)ccn2)CC1 [Compound 72] | < 100 nM
